Reference: PubChem BioAssay AID1259297 (Sanger Institute, 2017)
Test: 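Kinases whose loss kills cells on their own or with targeted drugs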 (primary screen). System: human RCM1 colorectal cancer cell line. Knock-down reagent: siRNA pool against human genes. Treatment: separate arms: DMSO vehicle, or one anchor drug at a mild dose: BYL719 1 µM, cetuximab 5 µg/ml, trametinib 10 nM. Measured: 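Replicate-mean well viability as a share of non-targeting pool control, a robust z-score without drug, and synergy scores for BYL719, cetuximab and trametinib arms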. Scale: viability z-score, knock-down alone: higher = more viable cells than non-targeting controls. Hit rule: 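Essential when the viability robust z-score for knock-down alone is below -3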. Meaning of the calls: active = essential when knocked down alone; inactive = no clear loss of viability alone.
This is one part, drawn at random, of 794 reagents. Over the whole deposit, 13 (1.6%) are marked active. 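Calls reflect knock-down without drug only; drug synergy is judged separately, with scores above 0.15 counted as synergy.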 Further read-outs or replicates are left out here. No sequences are given here. The record does not give: the amount of reagent, the time to read-out.

TEC — viability z-score, knock-down alone: -1.44; outcome: inactive
STRADB — viability z-score, knock-down alone: -0.906; outcome: inactive
PIM3 — viability z-score, knock-down alone: 0.9; outcome: inactive
STK16 — viability z-score, knock-down alone: -0.136; outcome: inactive
CDK1 — viability z-score, knock-down alone: 0.9; outcome: inactive
PIK3C3 — viability z-score, knock-down alone: 0.549; outcome: inactive
FN3KRP — viability z-score, knock-down alone: -2.46; outcome: inactive
TEX14 — viability z-score, knock-down alone: 0.9; outcome: inactive
IRAK2 — viability z-score, knock-down alone: 0.9; outcome: inactive
RSKR — viability z-score, knock-down alone: 0.0973; outcome: inactive
CDKN2C — viability z-score, knock-down alone: 0.9; outcome: inactive
BMPR1B — viability z-score, knock-down alone: 0.49; outcome: inactive
GNE — viability z-score, knock-down alone: 0.071; outcome: inactive
AKT3 — viability z-score, knock-down alone: -0.876; outcome: inactive
IKBKG — viability z-score, knock-down alone: -0.294; outcome: inactive
SMAD2 — viability z-score, knock-down alone: -2.64; outcome: inactive
GUK1 — viability z-score, knock-down alone: 0.33; outcome: inactive
MAPK4 — viability z-score, knock-down alone: -0.9; outcome: inactive
FER — viability z-score, knock-down alone: -0.0188; outcome: inactive
